No constants are given. Whether binding was seen depends on the method and setting. Binding seen in cells or lysates may run through a third protein. Some entries that bind do so weakly or less than the wild type.
Target: Y-box binding protein 1 (human (endogenous in A549)) (UniProt P67809)
Experiment: co-IP; Pierce Co-immunoprecipitation kit; anti-YBX1 (ab76149) or anti-p53 (sc-126) antibody coupled to AminoLink Plus Coupling Resin; total A549 cell lysate in IP buffer, overnight at 4 °C; eluate analysed by western blot

- binding: binds
Substance: p53 (from UniProt P04637 1-393)

From publication PMC7067885
